According to the supplement of paper PMC4862054:
Most values lie at the level of the controls, where differences are scatter.

Experiments:
Test in all cases: normalised response (% of control), CellTox Green; higher = less cell death (100 = DMSO, 0 = benzethonium chloride kill control)
Conditions in all cases: incubation time: 72 h
BT-474 = test system: BT-474
Method: (§1)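 DSRT, 72 h incubation, CellTox Green / CellTiter-Glo readout. Signal is normalised to DMSO and benzethonium chloride controls. Value is the normalised response at dose 2.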

BT-549 = test system: BT-549
Method: as §1

CAL-120 = test system: CAL-120
Method: as §1

CAL-148 = test system: CAL-148
Method: as §1

CAL-51 = test system: CAL-51
Method: as §1

CAL-85-1 = test system: CAL-85-1
Method: as §1

DU-4475 = test system: DU-4475
Method: as §1

HCC1143 = test system: HCC1143
Method: as §1

HCC1599 = test system: HCC1599
Method: as §1

HCC1937 = test system: HCC1937
Method: as §1

HDQ-P1 = test system: HDQ-P1
Method: as §1

Hs578T = test system: Hs578T
Method: as §1

MCF-10A = test system: MCF-10A
Method: as §1

MDA-MB-231 = test system: MDA-MB-231
Method: as §1

MDA-MB-436 = test system: MDA-MB-436
Method: as §1

MDA-MB-453 = test system: MDA-MB-453
Method: as §1

MFM-223 = test system: MFM-223
Method: as §1

MDA-MB-468 = test system: MDA-MB-468
Method: as §1

Row | SMILES | normalised response (BT-474) | normalised response (BT-549) | normalised response (CAL-120) | normalised response (CAL-148) | normalised response (CAL-51) | normalised response (CAL-85-1) | normalised response (DU-4475) | normalised response (HCC1143) | normalised response (HCC1599) | normalised response (HCC1937) | normalised response (HDQ-P1) | normalised response (Hs578T) | normalised response (MCF-10A) | normalised response (MDA-MB-231) | normalised response (MDA-MB-436) | normalised response (MDA-MB-453) | normalised response (MFM-223) | normalised response (MDA-MB-468)
1 | CCC/C=C/C=C/C(=O)O[C@H]1/C(=C/C(=O)OC)C[C@H]2C[C@H]([C@@H](C)O)OC(=O)C[C@H](O)C[C@@H]3C[C@H](OC(C)=O)C(C)(C)[C@](O)(C[C@@H]4C/C(=C/C(=O)OC)C[C@H](/C=C/C(C)(C)[C@]1(O)O2)O4)O3 [Bryostatin 1] (0.1 nM) | 104% | 109% | 108% | 104% | 111% | 97% | 117% | 112% | 118% | 114% | 121% | 69% | 95.2% | 110% | 108% | 108% | 98.2% | 
2 | COc1ccc(C2=N[C@@H](c3ccc(Cl)cc3)[C@@H](c3ccc(Cl)cc3)N2C(=O)N2CCNC(=O)C2)c(OC(C)C)c1 [Nutlin-3] (10 nM) | 97.3% | 96.8% | 102% | 54% | 104% | 104% | 101% | 111% | 98.4% | 96.6% | 104% | 76.8% | 95.3% |  | 93.3% | 98.9% | 89% | 100%
3 | O=C(Cc1ccc(-c2ccc(OCCN3CCOCC3)cc2)cn1)NCc1ccccc1 [KX2-391] (10 nM) | 96.5% | 94.5% | 103% | 110% | 95.6% | 97.7% | 106% | 108% | 105% | 98.9% |  | 125% | 114% |  | 110% | 99.2% | 92.4% | 91.9%
4 | O=C(c1ccc(OCCN2CCCCC2)cc1)c1c(-c2ccc(O)cc2)sc2cc(O)ccc12 [Raloxifene] (10 nM) | 103% | 102% | 101% | 112% | 99% | 101% | 98.6% | 106% | 103% |  | 112% | 110% | 100% | 114% | 57.2% | 94% | 104% | 80.3%
5 | CS(=O)(=O)OCCCCOS(C)(=O)=O [Busulfan] (100 nM) | 76.5% | 99.1% | 99.9% | 107% | 112% | 91.8% | 97.3% |  | 103% | 118% | 104% |  | 107% | 97.4% | 108% | 99.5% | 94.4% | 92.7%
6 | CN1CC[C@H](c2c(O)cc(O)c3c(=O)cc(-c4ccccc4Cl)oc23)[C@H](O)C1 [Alvocidib] (10 nM) | 102% | 105% | 106% | 103% | 111% | 91% | 113% | 100% | 112% | 102% | 124% | 92.9% | 100% |  | 106% | 110% | 101% | 78.3%
7 | CNNCc1ccc(C(=O)NC(C)C)cc1 [Procarbazine] (10 nM) | 103% | 111% | 90.8% | 111% | 97% | 101% | 96.8% |  | 92.2% | 92.5% | 96.9% | 122% | 104% | 113% | 104% | 96.5% | 101% | 108%
9 | CC(C)C[C@H](NC(=O)[C@@H](COC(C)(C)C)NC(=O)[C@H](Cc1ccc(O)cc1)NC(=O)[C@H](CO)NC(=O)[C@H](Cc1c[nH]c2ccccc12)NC(=O)[C@H](Cc1cnc[nH]1)NC(=O)[C@@H]1CCC(=O)N1)C(=O)N[C@@H](CCCNC(=N)N)C(=O)N1CCC[C@H]1C(=O)NNC(N)=O [Goserelin] (10 nM) | 102% | 89.1% | 96.6% | 104% | 93% | 106% | 93.3% |  | 89.6% | 98.2% |  | 125% | 87.8% | 99.1% | 85.1% | 79.3% | 93.4% | 137%
10 | Cc1cc(Nc2nc(N[C@@H](C)c3ncc(F)cn3)ncc2Cl)[nH]n1 [AZD1480] (1 nM) | 98.8% | 106% | 102% | 103% | 102% | 98.8% | 96.2% | 100% | 95.8% |  | 115% | 111% | 99% | 95.3% | 100% | 101% | 102% | 86.3%
11 | O=C(O)C(=O)O.[NH-][C@@H]1CCCC[C@H]1[NH-].[Pt+2] [Oxaliplatin] (10 nM) | 96.8% | 94.8% | 97.6% | 105% | 97.4% | 90.8% | 92.2% |  | 94.8% | 95.5% | 116% | 111% | 105% | 80.6% | 94.7% |  | 99.2% | 124%
